“Also recorded” adds a separate entry of the source.
Tested on: Q11 nanofibers
Assay: Protein/peptide integration into Q11 nanofibers (sedimentation by centrifugation, supernatant analysis)
Conditions: for integration into Q11 nanofibers: loss from supernatant after centrifugation

With “βTail-GFP: recombinant fusion of βTail, Gly-Ser linker, GFPuv and His6 expressed in E. coli; SEQ ID NO. 65” the “integration into Q11 nanofibers” value was “efficiently integrated into Q11 nanofibers”, the “sedimentation / self-assembly in the absence of Q11” value (solutions lacking Q11 peptides) was “retained in the supernatant when solutions lacked Q11 peptides; also recorded: not sedimented by centrifugation in the absence of Q11 at any concentration tested” and the “co-integration of βTail-cut and βTail-GFP into Q11 nanofibers” value (varying molar ratio of proteins during Q11 assembly, nanofiber fluorescence and cutinase activity (FIG. 3D)) was “co-integrated into Q11 nanofibers at a predictable dose, without loss of activity”.

With “βTmutant-GFP: fusion of GFP and a non-folding βTail mutant; SEQ ID NO. 67” the “integration into Q11 nanofibers” value was “integrated poorly”.

Source: patent US9200082B2, “Methods and compositions involving fibrillizing polypeptides for nanofibers” (The University of Chicago, priority 2013, dated 2015)
